The source of these data is article PMC5120349, “Reconstitution of Targeted Deadenylation by the Ccr4-Not Complex and the YTH Domain Protein Mmi1”.

Amino acid sequences for entries named in this document (tags omitted).
UniProt P87112: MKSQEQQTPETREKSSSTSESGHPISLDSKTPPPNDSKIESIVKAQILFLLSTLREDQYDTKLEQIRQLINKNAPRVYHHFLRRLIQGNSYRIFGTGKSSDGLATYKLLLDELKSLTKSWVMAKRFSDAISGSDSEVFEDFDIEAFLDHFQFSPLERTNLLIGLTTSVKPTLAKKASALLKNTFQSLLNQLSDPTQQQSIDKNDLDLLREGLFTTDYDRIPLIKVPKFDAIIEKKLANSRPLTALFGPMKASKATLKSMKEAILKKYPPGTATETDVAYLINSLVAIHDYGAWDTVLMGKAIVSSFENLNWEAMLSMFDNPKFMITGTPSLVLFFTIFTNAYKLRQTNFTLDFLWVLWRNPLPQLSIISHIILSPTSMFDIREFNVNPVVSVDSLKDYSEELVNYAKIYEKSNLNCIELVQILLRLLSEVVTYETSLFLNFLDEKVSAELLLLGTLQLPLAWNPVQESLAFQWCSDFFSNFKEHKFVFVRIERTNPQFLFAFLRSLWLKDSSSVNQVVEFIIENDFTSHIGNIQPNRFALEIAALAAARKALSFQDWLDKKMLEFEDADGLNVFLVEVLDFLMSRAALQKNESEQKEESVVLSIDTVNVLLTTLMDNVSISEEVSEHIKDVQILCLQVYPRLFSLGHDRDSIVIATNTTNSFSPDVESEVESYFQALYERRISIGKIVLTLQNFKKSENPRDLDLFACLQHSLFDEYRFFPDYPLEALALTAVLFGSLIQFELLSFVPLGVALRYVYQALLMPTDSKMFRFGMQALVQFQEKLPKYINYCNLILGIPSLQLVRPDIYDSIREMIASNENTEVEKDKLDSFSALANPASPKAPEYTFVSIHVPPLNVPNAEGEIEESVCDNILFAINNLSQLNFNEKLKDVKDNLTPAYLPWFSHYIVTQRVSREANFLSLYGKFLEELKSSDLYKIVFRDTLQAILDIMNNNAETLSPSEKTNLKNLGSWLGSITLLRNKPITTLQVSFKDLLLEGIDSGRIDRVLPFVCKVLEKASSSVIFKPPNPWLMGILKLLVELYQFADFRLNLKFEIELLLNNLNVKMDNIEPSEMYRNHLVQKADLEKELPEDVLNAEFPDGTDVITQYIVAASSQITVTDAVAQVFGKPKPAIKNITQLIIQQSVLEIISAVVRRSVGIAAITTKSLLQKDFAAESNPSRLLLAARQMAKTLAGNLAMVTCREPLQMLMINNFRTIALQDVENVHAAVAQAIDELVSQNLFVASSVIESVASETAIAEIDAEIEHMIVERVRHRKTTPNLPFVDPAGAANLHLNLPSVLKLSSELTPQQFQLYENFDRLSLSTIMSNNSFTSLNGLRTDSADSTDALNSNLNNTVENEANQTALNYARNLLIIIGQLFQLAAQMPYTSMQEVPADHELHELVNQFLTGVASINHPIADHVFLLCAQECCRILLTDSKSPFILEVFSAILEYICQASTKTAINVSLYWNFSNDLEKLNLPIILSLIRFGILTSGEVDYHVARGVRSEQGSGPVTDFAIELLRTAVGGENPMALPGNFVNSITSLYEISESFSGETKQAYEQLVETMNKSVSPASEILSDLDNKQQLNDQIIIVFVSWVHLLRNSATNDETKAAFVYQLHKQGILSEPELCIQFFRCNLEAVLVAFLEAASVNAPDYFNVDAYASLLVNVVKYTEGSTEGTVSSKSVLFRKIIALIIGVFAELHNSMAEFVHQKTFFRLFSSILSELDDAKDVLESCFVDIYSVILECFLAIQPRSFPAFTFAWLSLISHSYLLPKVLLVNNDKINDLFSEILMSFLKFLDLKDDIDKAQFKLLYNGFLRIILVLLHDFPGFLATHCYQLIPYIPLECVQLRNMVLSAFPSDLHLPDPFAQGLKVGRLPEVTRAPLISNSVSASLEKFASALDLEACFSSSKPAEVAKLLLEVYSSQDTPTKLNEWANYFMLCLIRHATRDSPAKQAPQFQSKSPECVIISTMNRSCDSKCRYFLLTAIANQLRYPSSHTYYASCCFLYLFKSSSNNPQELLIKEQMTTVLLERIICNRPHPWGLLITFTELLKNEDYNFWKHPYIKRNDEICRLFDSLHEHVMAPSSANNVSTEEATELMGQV

Test [1] has as its target T1, Rcd1 (TAP-tagged, endogenous, S. pombe) (S. pombe (endogenous in S. pombe)) (UniProt Q92368).
T1 sequence: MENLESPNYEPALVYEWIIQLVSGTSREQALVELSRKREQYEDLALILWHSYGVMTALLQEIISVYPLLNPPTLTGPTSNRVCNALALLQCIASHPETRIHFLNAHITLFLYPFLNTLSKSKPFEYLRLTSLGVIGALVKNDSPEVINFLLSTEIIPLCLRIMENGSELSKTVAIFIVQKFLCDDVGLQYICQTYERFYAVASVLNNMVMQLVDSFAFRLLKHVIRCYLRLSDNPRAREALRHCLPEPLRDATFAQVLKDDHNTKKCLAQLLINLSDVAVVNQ
As to the kind of experiment: affinity purification with mass spectrometry; tandem affinity purification of the endogenous complex from an S. pombe strain with a C-terminal TAP tag on rcd1; SDS-PAGE, Coomassie blue, bands identified by mass spectrometry; Mmi1 interaction not sensitive to RNase treatment.

For test [2], the target named is T1, Rcd1 (TAP-tagged, endogenous, S. pombe) (S. pombe (endogenous in S. pombe)). The test is described as above. The source holds these as a separate data set.
The target in test [3] is T2, Caf40 (TAP-tagged, endogenous, S. cerevisiae) (S. cerevisiae (endogenous in S. cerevisiae)) (UniProt P53829).
T2 sequence: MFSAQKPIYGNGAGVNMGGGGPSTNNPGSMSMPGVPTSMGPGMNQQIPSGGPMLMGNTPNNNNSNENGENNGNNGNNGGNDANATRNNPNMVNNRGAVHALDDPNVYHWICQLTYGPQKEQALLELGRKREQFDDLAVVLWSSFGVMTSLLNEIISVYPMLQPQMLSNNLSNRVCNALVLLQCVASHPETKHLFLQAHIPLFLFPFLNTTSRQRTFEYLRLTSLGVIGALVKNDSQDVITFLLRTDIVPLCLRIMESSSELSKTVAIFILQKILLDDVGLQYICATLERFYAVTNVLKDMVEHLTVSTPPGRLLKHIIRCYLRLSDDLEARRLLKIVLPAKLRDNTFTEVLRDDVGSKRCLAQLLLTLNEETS
The experiment in a line: affinity purification with mass spectrometry; tandem affinity purification of the endogenous complex from an S. cerevisiae strain with TAP-tagged Caf40; SDS-PAGE, Coomassie blue, bands identified by mass spectrometry.

Where two headings read alike, the source gives them in different places. No constants are given. Whether binding was seen depends on the method and setting. Binding seen in cells or lysates may run through a third protein. A yes stands for co-enrichment or nearness to the bait. Other partners may have been found. Where a sequence is shown, tags or fusion partners need not be part of it.

Take Not4 ortholog (endogenous, S. pombe): the binding entry in test [1] was “binds”.
On the same count and under the same terms, then “Not1 (endogenous, S. pombe) (from UniProt P87112 1-2100)”, with “binds”.

B1: Not2 (endogenous, S. pombe) (protein, UniProt P87240 1-306)
chain: MSLANRLSHLNITGGNDFKASIGPSVGRQNEATNPWSSTSHSLENSAATVVNELQTTKEQKTPEQSTTANPLFPGNDFSDFNNHKSKLLGVITGKSTPSSQAEKSDTTNSKTGSTEELTETPADENAKQYMLESLLPIIRMEDSEMSTLQLGCDLAALGFDLAPVEEDRLISTNLFSPWAELNTKKPVSQPMFKLPACYKNVNPPPAISKIFQFSDETLFYIFYTMPRDVMQEAAAQELTNRNWRFHKELRVWLTPVPGMKPLQRTPQFERGYYMFFDPIHWKRIKKDFLLMYAALEDRAQSAVHS
As for B1, the binding result in test [2] is reported as “binds”.

B2: Ccr4 (endogenous, S. pombe) (enzyme, UniProt O74874 1-690)
chain: MFNPRYTQGTIYPGAHPGLLTPDHQHAAILSVQNSPALENSNISEHWKQQIALATQSRSFSSPHQRAHNAAALARSGGPGFSMNYNARTGAFTGGPNAAGLSSLGGKYNTSSTTTTLTTSTTLNTSSGTTLNSTSKTTTSSVAVDDQKSKSDSKKERRDWTCLDLGGIGLRNVSTDLFKFSFLTELYINHNNLTRLPPEIGKLKNLVILDASGNSIKTIPPELGLLTELREVLLFDNMISVIPAELGTLFQLKILGIEGNPLQDVYKNQIMESGTAGLIAALRDGCPVGPPPPERGWEKLVSDDDDDVNDNVSTSVRDLTAADSNKPSTTSKNLKFTIMSYNVLCERYATSTLYGYTPSWALSWSYRKDLIMQELGGYNADIICLQEVDVENYDTFFAPQMSLKGYKGVHFPKSRVRTMNEVERRIVDGCATFFKTSKYVMHEKMVIEYNQAPSLRRQDIKLTSNMYNRVMTKDNISVITLLENKENGSRLIVANCHIHWDPQFRDVKVIQVAMLMDEIAQVATKFRNMPSKIPSDQLKDERPTYPEYLKIPILICGDFNSVQGSGVYDFLSSGSISQNHEDFMNNDYGEYTVNGRSHAFNLKSAYGESEALSFTNYTPGFKGAIDHIWYTGNSLEVTGLLKGVDKDYLSGVVGFPNAHFPSDHICLLAEFKVKQEKTPLPSSKFNNDKK
B2: in test [2], the binding entry is reported as “binds”.

B3: Caf130 (endogenous, S. cerevisiae) (protein, UniProt P53280 1-1122)
chain: MTKKKAATNYAERQNLASEDSSGDSVHFKDFIPLQELLKDKNYVPSVENLEKILYNETMFNDQKICSNLLLEALIITLFTTISGKSALRLIQTSSLKERKSWAQSFENNSSSYASIVLSWKDNDILLLKFLRFLLANKTAPLQINRYNLPEYKLPLSFLIVSKITIPSILLNETYNLLKDYLYSITGRIESLISCSSTFDKPALVVRKILKDYNRMIECRNFYFWYSFNAENRVNLTFSDNISLLMENDEGNAGSGLDDSRFDHQKQPREAIMGRTINDQEQIYSFELNQDGTLEIPNVMEHSLLRHELLFKILNLTTVLTPLLELQFSTLCGLVDPLMQPTPNDKHIISIDFLFQLFLGLMSQSIKTSQEHNDHYDWKFYMCFNMQKIIDATMLRLNCFDFDILNSVNNTDNAVHWKTQLHRWLPHGLNTQDLELLYMIDILAVYTIYKLYEKIPIQLNPFLFSLISLWKNLSCVILLALEIDRIEEENGTYETPLMVRATIRGAAALRSVIATVLNGLVKNNDHDFKHESLNTFMSPYGRKLCHGALYADLRSHTASLLALGASIEDVTDLFADLQSGDRFDEDIRYMFDYECEDYDESFSESDHGGLDESVVNPTEKIASGSNNVFFRRRCNCIFNDDKLVAEDGANEAFGSTNSENVEGAMHNNRNAVHNATTATSDHVVTSPNPLSVRSRSTFEFDYSGEDWRDVPRDFNMYYSPSYSFIHEPKLDVIFSLTLRGATEKLNKEESILLVRSVASCVRNEQDQMILADLESNFSASINGDVEGEGNTKMSKIDNEDLRRTTPDDIYEIWSEESAFERMLNVNHDVAWRLMDEMLMCTGYRRILIWFLTHLELKHSLIYYVFELIMGLRGKPFSGEASDQDKKDDMIYEILKKKQKNEDASGLPFSRQGPIVLSDIETKMLLQEFFMNAAIFLSSKNNEEENEDGEKISLYSLGLVRLICYMVQTLIANDKFFFTKSECTFELQTLLMTWIGILPEAKDLFFKIKTRLAMEEEDSADTMQHEGRKNSDIEKKLNAKPASELNLKLLNLFPSKPANKDDSSPINTLRSFIADYSFDTQVNPPGRRVVFYDGKILPLPKADKPIPLHEYITLAELDVGDSE
For B3, the binding entry in test [3] was “binds”.

B4: Mmi1 (meiotic mRNA interceptor 1; endogenous, S. pombe) (protein, UniProt O74958 1-488)
chain: MSNTNFSTSRSSKSIPELPNLEALRSLWPPPSLNESGDTRSVWTTHTGEPVASSVLSTSGSNNFSSPLKRPAPESHDAPIGRRLMVDDPRLIKHGKYDFSRHCTDYGHSYEWPYFRSLRRESMLYHTSGSYPESQPPYSSYSTDAPHYYHAGSESSAYYDSRSRLHGIQPPPKRRTLSPPPRRLADPVVVGSSRYVEEEVYRRPPYTLASEVPSSASAYQAGYSSYPVRSSPQLSHEDTRHGIASSGSTRYPFVPANTRASHSPSLLEPYAHSLPSSVAPVGAYPEKSSYLLSNSSNDSASRKEKPKARASTPPPLNFSRASEHRNEKGERISMINPRVVLDENGISHRSRYFIMLCDNETAIAHAKKTSIWAVKKDSSKRISDAYKKASVYFIFVAQQTYNALGYAQVVSDLNSTELPFWSDSSHAGGVRIKWIKTCNLFSAEISEIVSHMDHGSEARDGMEMMYDEGSRLCTLINYAIMKRIGRDR
On to B4, for which the binding result in test [2] is reported as “binds”.

B5: Not3 (endogenous, S. pombe) (protein, UniProt O13870 1-640)
chain: MSARKLQVEIEKTFKKVTDGIAIFDEVYEKLSASNSVSQKEKLEGDLKTQIKKLQRLRDQIKTWASSNDIKDKKALLENRRLIEAKMEEFKAVEREMKIKAFSKEGLSIASKLDPKEKEKQDTIQWISNAVEELERQAELIEAEAESLKATFKRGKKDLSKLSHLSELESRIERHKWHQDKLELIMRRLENSQISPEAVNDIQEDIMYYVECSQSEDFAEDENLYDELNLDEASASYDAERSGRSSSSSHSPSPSASSSSSSENLLQDKAEAEEKVSADASVQDIAEKESLDADKELATNDQEDDEEENQAETQKDGAISNNENMQSEVQTTNPSASTSAVTNITKPTLIQNPSTPLSVSNSKVASPETPNATHTAPKVEMRYASAAAAAAAALAKESPSHHYIMQQVRPETPNSPRLNSTVIQSKWDSLGHTASPKMQTQPVRSVSQSSATTETNVKPTKEENADVPVSSPDYLKDLVNALNTSKEQHKGAIDKEKLTEALNISCVYVPDATDAAKPQYYIPKDPYPVPHYYPQQPLPLFDSSEMTELVDPDTLFYMFYYRPGTYQQYIAGQELKKQSWRFHKKYTTWFQRHEEPKMITDEFESGSYRYFDFEGDWVQRKKADFRFTYQYLEDDDDWTR
B5: the binding entry in test [2] is on record as “binds”.

B6: Caf1 (endogenous, S. pombe) (enzyme, UniProt O74856 1-335)
chain: MTAMNSNFSYPALGVDGISSQISPIRDVWSTNLQQEMNLIMSLIERYPVVSMDTEFPGVVARPLGVFKSSDDYHYQTLRANVDSLKIIQIGLALSDEEGNAPVEACTWQFNFTFNLQDDMYAPESIELLTKSGIDFKKHQEVGIEPADFAELLIGSGLVLQEEVTWITFHSGYDFAYLLKAMTQIPLPAEYEEFYKILCIYFPKNYDIKYIMKSVLNNSKGLQDIADDLQIHRIGPQHQAGSDALLTARIFFEIRSRYFDGSIDSRMLNQLYGLGSTGSVLWHNNSSTPQIQFRDLPGAHPSPTPSNAGIPTTLTNTSSAPNFANSTFRFPPRVV
B6: the binding entry in test [2] is recorded as “binds”.
